Results from patent US20230355597A1, “COMPOUNDS, COMPOSITIONS, AND METHODS FOR THE TREATMENT AND PREVENTION OF AVIAN PATHOGENIC E. COLI (APEC)” (OHIO STATE INNOVATION FOUNDATION, priority 2018, published 2023).
Some entries share one result that the patent states for a list of compounds. For some of these results: At least one structure is not confirmed: it was looked up by name or label, or the drawing left a doubt.

Tests used:
APEC O1 in HD-11 cells = assay: Intracellular survival assay (AI-2 inhibitors); conditions: O1, HD-11, 100 µM, 6 h, vs DMSO
APEC O2 in THP-1 cells = assay: Intracellular survival assay (AI-2 inhibitors); conditions: O2, THP-1, 100 µM, 6 h, vs DMSO
[1] = system: 12 commensals/probiotics bacteria; assay: Effect against beneficial microbes; assay type: cell-based; conditions: 100 µM
[2] = system: intracellular APEC O78, O2, and O1 in infected Caco-2, HD11, and THP1 cells; assay: Intracellular survival assay (cidal SMs), summary over serotypes and cells; conditions: all tested cells, summary statement
[3] = system: E. coli Nissle 1917 and E. coli G58-1; assay: Effect against beneficial microbes; assay type: cell-based; conditions: 100 µM
HD-11 cells = assay: LDH assay of AI-2 inhibitors; assay type: cell-based, chicken; conditions: HD-11, 100 µM, 24 h
[4] = system: biofilm embedded APEC O78; assay: MBEC High-throughput assay; assay type: cell-based, avian pathogenic Escherichia coli (APEC)
Method: Effect against biofilm embedded APEC. The effect of cidal SMs against biofilm embedded APEC was determined using MBEC High-throughput (HTP) assay (Innovotech Inc., AB, Canada). Briefly, 150 µL of 0.05 OD600 adjusted APEC O78 culture was aliquoted into each well of the MBEC device containing polystyrene pegs and incubated at 37° C. for 36 h in LB media under stationary condition. […] The plate was incubated in the dark for 18 h at 37° C. with rotation at 110 rpm. The DMSO (1%) and M63 media were used as positive and negative controls, respectively. Following incubation, MIC of SMs in challenged plate was recorded. The SMs exposed pegs were then transferred to a new 96-well plate containing PBS and sonicated for 30 mins (Aquasonic ultrasonic cleaner, VWR) to disrupt the biofilm. […] Biofilm embedded APEC bacteria were enumerated and minimum biofilm eradication concentration (MBEC) of […] were determined. Two independent experiments were conducted.

SMILES | cidal activity against the 12 commensals/probiotics bacteria tested (number affected) [1] | concentration clearing intracellular APEC O78, O2, and O1 [2] | effect on E. coli Nissle 1917 and E. coli G58-1 [3] | also measured
O=[N+]([O-])c1cccc(S(=O)(=O)Nc2ccc(Br)cc2)c1 [C6, N-(4-bromophenyl)-3-nitrobenzenesulfonamide] |  |  |  | reduction of intracellular survival (APEC O1 in HD-11 cells): up to 0.9 logs; reduction of intracellular survival (APEC O2 in THP-1 cells): up to 1.5 logs
COc1ccc(CCN(Cc2cc3c(cc2Cl)OCO3)CC2CCN(C)CC2)cc1 [SM11] | one to three | ≥ 100 µM |  | 
CCCCCCCCCCCCCCCC[n+]1ccn(CC#N)c1 [SM6] |  | less than or equal to 100 µM |  | 
COc1cc(CNCCc2ccc(C)cc2)ccc1OCC(O)CN1CCCC1 (stereo not shown) [SM3] | one to three | ≥ 100 µM | did not have effect | 
CCN1C(=Cc2ccc3ccccc3[n+]2CC)C=Cc2ccccc21.[Cl-] [SM9] | one to three | less than or equal to 100 µM | did not have effect | 
CC1CCCN(CCC(=O)c2ccc(Br)cc2)C1.Cl (stereo not shown) [SM1] | one to three | ≥ 100 µM | did not have effect | 
CC1CCC(C(C)C)C(OC(=O)Cn2c[n+](CC(=O)OC3CC(C)CCC3C(C)C)c3ccccc32)C1.[Cl-] (stereo not shown) [SM4] |  | less than or equal to 100 µM |  | 
CCCCCCCCCCCCCCCCn1c[n+](C)c2ccccc21.[Br-] [SM5] |  | less than or equal to 100 µM |  | 
CCc1ccccc1Nc1nc(-c2c(C)nc3ccccn23)cs1 [C8, N-{2-ethyphenyl)-4-(2-methylimidazo[1,2-a]pyridin-3-yl)-1.3-thiazol-2-amine] |  |  |  | toxicity (LDH) (HD-11 cells): less than 10%
Cc1ccc(CN2CCN(CCCc3ccccc3)CC2)cc1 [C5] |  |  |  | toxicity (LDH) (HD-11 cells): less than 10%
COc1ccc(CNCc2cccc(C(F)(F)F)c2)cc1OCC(O)CN1CCCC1 (stereo not shown) [SM7] |  | less than or equal to 100 µM |  | 
CC(=O)OC(C(Br)C(=O)c1ccc([N+](=O)[O-])cc1)C(Cl)(Cl)Cl (stereo not shown) [SM10] |  | less than or equal to 100 µM | did not have effect | MBEC as multiple of MIC [4]: > 8 X MIC
COc1cc(CNCCc2ccc3ccccc3c2)ccc1OCC(O)CN1CCCC1 (stereo not shown) [SM2] | one to three | ≥ 100 µM | did not have effect | 
